We go through 5 substances from publication doi:10.1101/477745.

Sequences of proteins named here, by UniProt entry; tags and fusion partners are left off.
UniProt Q2FF45, whole entry: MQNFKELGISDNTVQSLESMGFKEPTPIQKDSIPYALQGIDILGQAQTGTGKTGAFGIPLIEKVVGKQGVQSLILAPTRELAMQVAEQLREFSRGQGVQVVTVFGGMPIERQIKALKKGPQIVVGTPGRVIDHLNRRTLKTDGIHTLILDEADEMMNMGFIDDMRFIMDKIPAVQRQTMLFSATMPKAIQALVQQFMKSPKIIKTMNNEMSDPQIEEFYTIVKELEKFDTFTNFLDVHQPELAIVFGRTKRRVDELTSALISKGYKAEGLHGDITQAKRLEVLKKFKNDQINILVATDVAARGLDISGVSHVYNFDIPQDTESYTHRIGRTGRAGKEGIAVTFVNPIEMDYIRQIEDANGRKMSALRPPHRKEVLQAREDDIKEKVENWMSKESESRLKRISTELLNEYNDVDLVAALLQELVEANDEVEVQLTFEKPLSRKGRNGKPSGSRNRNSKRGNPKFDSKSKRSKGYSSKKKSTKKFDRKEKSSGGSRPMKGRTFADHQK

These are yes or no findings as the source states them, for the method shown. For part of these data: In cells and extracts the contact can be indirect. Some entries that bind do so weakly or less than the wild type. For part of these data: Where a sequence is shown, tags or fusion partners need not be part of it.

Test [1] has as its target T1, Era fused to SB (small bit of luciferase) (S. aureus) (UniProt Q2FGF6).
T1 sequence: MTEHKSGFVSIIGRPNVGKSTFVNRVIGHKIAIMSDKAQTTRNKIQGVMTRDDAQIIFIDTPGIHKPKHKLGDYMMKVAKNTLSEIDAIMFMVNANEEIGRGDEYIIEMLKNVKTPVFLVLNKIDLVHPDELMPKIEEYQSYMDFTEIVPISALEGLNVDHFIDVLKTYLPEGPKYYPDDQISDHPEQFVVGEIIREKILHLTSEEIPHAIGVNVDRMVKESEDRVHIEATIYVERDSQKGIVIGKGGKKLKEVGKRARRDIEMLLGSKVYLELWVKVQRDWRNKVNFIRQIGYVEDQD
The test can be described thus: split reporter.

Another test addresses T2, Era-T25 (S. aureus) (UniProt Q2FGF6).
T2 sequence: T1 sequence
In words: two-hybrid.

A further test deals with T3, T25-Era (S. aureus) (UniProt Q2FGF6).
T3 sequence: T1 sequence
The test can be described thus: two-hybrid.

The target of test [2] is T4, G domain of Era (1-180) fused to SB (S. aureus) (UniProt Q2FGF6).
T4 sequence: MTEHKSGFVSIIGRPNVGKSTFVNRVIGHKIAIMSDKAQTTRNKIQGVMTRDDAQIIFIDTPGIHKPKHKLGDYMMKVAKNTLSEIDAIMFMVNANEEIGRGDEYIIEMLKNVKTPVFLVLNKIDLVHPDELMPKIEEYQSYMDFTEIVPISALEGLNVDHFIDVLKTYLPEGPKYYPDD
The test can be described thus: split reporter.

On to “Cdd (split luciferase fusion) (from UniProt A0A0H2XFN0 1-134)”, for which the binding entry in test [1] is “no binding”.

For the substance “Cdd (bacterial two-hybrid fusion) (from UniProt A0A0H2XFN0 1-134)”, the binding result with Era-T25 (S. aureus) was “no binding”.

CshA-T18 (from UniProt Q2FF45 1-506): the binding entry in the test with Era-T25 (S. aureus) and with T25-Era (S. aureus) was “binds” in each case. Consider “DgkA (bacterial two-hybrid fusion) (from UniProt A0A0H2XF69 1-114)”, for which, in the test with Era-T25 (S. aureus), the binding entry was “no binding”. “full-length CshA fused to LB (large bit of luciferase) (from UniProt Q2FF45 1-506)”: the binding entry in test [2] is “binds”.
